Out of some 52,000 sequences screened, about 210 (0.4%) were called active.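 Rule for the calls: active = gene whose silencing raises cell survival under the drug, median off-target-corrected z-score across its silencing RNAs 2 or more; inactive = the rest.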 This is one part of the list.
assay: Resistance to Poly (ADP-Ribose) Polymerase inhibitor: Gene Identification via Genome-wide siRNA Screen; conditions: mouse BRCA2 R2336H ES cells, olaparib, CellTiter-Glo viability; hits give high values
Outline: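 Mouse BRCA2 R2336H ES cells were reverse-transfected with siRNA (20 nM final), treated at 48 h with 500 nM olaparib, and read by CellTiter-Glo after 72 h. Scores: MAD-based z per siRNA, median per gene, seed off-target correction.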

Sequence	z-score
CCUAUAAGUGAACUGUGAUTT against Aig1	inactive: -1.16
GGAGUUCAUUGAUCAUUCUTT against Ndufb5	inactive: 2
GCCUCUCAUUAGCAGUCAATT against Fbxl15	inactive: 0.328
GCAUAAGAAGAAACACCUUTT against Usp17	inactive: 1.34
GGCUGAAGACUACUUCCUATT against 4932416K20Rik	inactive: -1.71
GCAUGUAGUUCAUCAGUACTT against Tubgcp5	inactive: -0.584
GGUGCUAUGUGCGUUUGAUTT against 9830107B12	inactive: 0.765
GGAGUACAUGACCACAGAUTT against AB041803	inactive: -0.883
CCAUUAGCAAUGUGCUUCUTT against Unc13a	inactive: 0.0849
GAGAAUGACGGACAAGUGUTT against Timm9	inactive: -0.0823
CCUGAAAUCCUGUAGCUACTT against Perld1	inactive: -0.208
GGUGCAGAAUAUUGAAUGUTT against AI847670	inactive: 0.0478
GGCUGUGAGCCGUAAGACUTT against Mrpl16	inactive: 0.388
GGUGGAGAACUGAGAAUCUTT against Obp1a	inactive: 0.166
GCUUAAACAGCUUUACUUATT against Actr2	inactive: 0.945
CCUUUGUAACUGGAAUUCUTT against Olfr197	inactive: 0.0133
CCGGAGCUAACACCUACAGTT against 1700049L16Rik	inactive: -1.34
CGUAACAAGCAGGAAGCAATT against Xlr4	inactive: -0.748
GGUCUUCUCGGGUCGAAAGTT against Cpt1a	inactive: -0.17
GGAAUGACUUCCCUACAAUTT against AI836376	inactive: -1.67
GCAUUUGUUAAACCUGCCUTT against 1500041J02Rik	inactive: -0.727
GCCUUUCUAUGCCCAGCAUTT against BC018601	inactive: -2.55
CGGAUUCCUGCUCUUAAGUTT against Tdrd3	inactive: -0.188
GGAAGAUAAUAUCCUUUGGTT against Olfr734	inactive: 0.204
UCUCAUGGAGUCUGCUGCUTT against Serpina1d	inactive: 0.366
CCGUCAGUGAAUUCUUGAATT against Birc5	inactive: -1.83

Sequence	z-score
GGAUUUAGGCCUUAUCAUCTT against Atf3	inactive: -0.509
GCAACGUGAAACAUAUUCUTT against Cpb1	inactive: 0.593
CCACGAAGAGCAAGAAAACTT against MGC118250	inactive: -3.5e-05
GGAGAACACAAGAUUUAAATT against D930036B08Rik	inactive: 1.49
CCCUUUCGGGCAAUGGACUTT against Olfr986	inactive: -1.16
CCCUGUUCGUAAUCAUUAUTT against Olfr467	inactive: 1.56
GCAAGCCACAACAGUUAAATT against Rpl9	inactive: -3.29
GGUGAUGUGUAGUGAAUGGTT against Il13	inactive: -0.782
GGCCUUUAUCCUGAGGCUATT against 2310061F22Rik	inactive: -0.593
CCGAAUUGGACUCCACCAATT against Gdf6	inactive: -1.61
GGAAUGGAAUACAAAGUCATT against C80587	inactive: 0.0646
CCGUCUGAUGAAAACACUATT against Ssfa2	inactive: -0.253
GGACAUCGCAUAUCAGCUATT against Akp2	inactive: -0.44
CCACCCAUAUUAUAAUUGUTT against Olfr722	inactive: 0.137
GGAUGAUGGCUGUAUUUUGTT against Hoxb5	inactive: 0.139
GCUAUUUCUCACAGAAUUATT against Dmd	inactive: 0.758
GGAGUCGGUUAGAAGCUCUTT against Trim15	inactive: -0.354
CCUCCGUUUGAUGACUCAATT against Tcte3	inactive: 0.671
GGUUUUAAUUUCAACUGUCTT against Cln2	inactive: 0.646
GGGCUAAUUGUGAACAUUUTT against Slc7a1	inactive: -3.02
GGCCAUCUCUUCUACUGUATT against 4732486J07Rik	inactive: -1.36
CGCAAUUUGAAUAUGCCUGTT against Ttc11	inactive: 0.695
GGAGACUGUAUGUGGCAAGTT against Camp	inactive: -0.82
GGAAGAAUGGAGCUGUACATT against Pep4	inactive: -0.122
GCCUUGUUUAUAUGCCCAATT against Olfr592	inactive: -0.955
GCAGUUUCUAAUGAAGGUUTT against Ppp2r5a	inactive: -0.681

Shown with each value named: part of the list above
CCAUUAGCAAUGUGCUUCUTT against Unc13a
  z-score: inactive: 0.0849
GGCUGUGAGCCGUAAGACUTT against Mrpl16
  z-score: inactive: 0.388
CCUUUGUAACUGGAAUUCUTT against Olfr197
  z-score: inactive: 0.0133
GCAUUUGUUAAACCUGCCUTT against 1500041J02Rik
  z-score: inactive: -0.727

Later entries

Sequence	z-score
GGUAAACAGAAUCUGGUGATT against Dhfr	inactive: 1.86
GGAUCUUUCGUGUGGAAAATT against Atf7ip	inactive: 1.14
GCAGAUCAGUUGGUACAAGTT against 8430416H19Rik	inactive: 1.06
GGUUCAAGUGGUAAGCAAUTT against 1700016D06Rik	inactive: -0.303
GGCAAUGUCAGAGCUAAUCTT against BC067068	inactive: -0.0128
GCAUGACAUAUAGUACAAUTT against LOC433365	inactive: 0.603
CAGUAUGGCCCUGUCCUACTT against Hand2	inactive: 1.91
CCGUCAAACUACAGUUUGATT against BC054438	inactive: -0.863
GGUGAUUUGCUCAAUCCAATT against Phox2a	inactive: 1.66
GGAUAAUGAUGUGAAAGGCTT against Mrps30	inactive: 0.361
ACAUGACAAACAACACUAUTT against Olfr960	inactive: -0.0859
GGUUGUGGAAAAUGUUAGGTT against Olfr1054	inactive: 1.06
GAUGGACAAACGGAAGUGCTT against Iapp	inactive: -0.245
GGGAACCAUCAAUAGGCACTT against 9130022K13Rik	inactive: -0.201
GCGCAAUACGUGGGUUUGUTT against A930021C24Rik	inactive: -1.88
GGACCUUGCAUUUGCUUACTT against Fez2	inactive: -0.463
GGCUCUUACUUCAUCACUATT against Casp4	inactive: -1.01
GGUCAGUAUCAGAAUGAUCTT against D930025H04	inactive: 0.891
GGCCGAAACUUCGUUUAUATT against Crsp6	inactive: -1.83
CCAAAACGGAAUCCUAAUATT against 9430031J16Rik	inactive: -0.0181
GCGGGCUUGGAAGAAUCAUTT against Gle1l	inactive: -1.74
GGGAAAGUUAAUAUCAAGATT against Ephb4	inactive: 1.35
GGGUUAAGCGCAAGUGUAATT against 2210008A03Rik	inactive: -1.83
GCACCAGUUCUACUUCACCTT against Fpr-rs2	inactive: 1.72
GGUAAAAUCACUUCAGAUCTT against Phb	inactive: 0.69
GGAAAUGGUAAUUUUCAGUTT against C330005L02Rik	inactive: 0.202

Sequence	z-score
GGUCCUUGUCUCUCAUGUATT against Snap29	inactive: -0.495
CGUAUGAAGGAAUUCCAUGTT against 1700011F03Rik	inactive: -0.186
GGCUCCGAAUAGGAGAUCATT against Crk	inactive: 0.196
GGAUCCACAAGGAAUUUAUTT against 9530003J23Rik	inactive: 0.576
CCCAGGGUGUCAAUCUAAATT against 1110014P06Rik	inactive: -0.481
GGAAAAUGACUUCAGCUGGTT against Sfmbt2	inactive: 0.293
GGAAUUUACUUACAUCAUGTT against Rbp3	inactive: 0.584
GGAGUUAUACGCAUGCCAGTT against ORF18	inactive: 1.95
GGCUAAGCAAGGCUAUGUCTT against Rpl15	inactive: -2.97
GGAGGAAGAGAAGUACAUUTT against Khdrbs3	inactive: 2.5
GGUCAGAGAACUCUCUACATT against Zfp68	inactive: -1.04
GCUCUAUGUACGCGUUAGATT against Col18a1	inactive: 0.705
CCUGCCAACUACGAAUGAATT against Stx8	inactive: 1.19
GCGCAGAGAGAAAUAUCCCTT against Map4k1	inactive: 1.25
CCGAGUGUAAACUUCAAAUTT against B130052G07Rik	inactive: 0.11
GCCUAGUUCUUUAUGCUAUTT against Golga4	inactive: 1.97
GGGCAGUAAGGACAGUUUUTT against Oaz1	inactive: -1.02
AGUCUUCACGUUUCAUUUATT against Olfr1195	inactive: 0.623
CGACAUGACCAAGAACGAUTT against Zyx	inactive: -1.65
GCUCAUGACACUCUUCCUGTT against Spib	inactive: -0.26
GCCUGACUAGAAAUAAAAATT against Pde4c	inactive: -0.715
GGAGUUGGAGAAUGACACGTT against Tg737Rpw	inactive: 1.42
GGGCACUUCUUCAAUGUAUTT against Arl6ip6	inactive: 0.992
GCAUAAUAGCGCAAGCUACTT against Ifi47	inactive: 0.685
GGAUGAAGAUGUGGAUCUGTT against Wdr23	inactive: -0.965
GGGACACCAAGUUUUCCAUTT against Mpra	inactive: 0.167
